In patent US11573241B2, “Total cellular iron as a marker of cancer stem cells and uses thereof” (Institut National de la Sante et de la Recherche Medicale …, priority 2016, dated 2023):

Type: physicochemical
Settings: FeCl2, 1H-NMR
From the text: FIG. 1. Salinomycin and AM5 sequester iron in lysosomes and trigger ferritin degradation. a, Chemical strategy to visualize small molecules in cells. b, Fluorescence microscopy images of U2OS cells showing the subcellular localization of labeled Sal derivatives AM4, AM5, and AM9. Lysotracker Deep Red stains the lysosomes and 4′,6-diamidino-2-phenylindole (DAPI) stains nuclear DNA. Scale bar, 10 μm. Zoom corresponds to ×6. c, Live cell fluorescence microscopy images showing the subcellular localization of iron(II) using the fluorogenic reduction of RhoNox-1 (green) in HMLER CD24^low cells treated with Sal or AM5 or AM9 (0.5 μM) for 48 h. Lysotracker deep red stains the lysosomes (red) and DAPI stains nuclear DNA (blue). Scale bar, 10 μm. d, Fixed cell fluorescence microscopy images showing the subcellular localization of iron(II) using the fluorogenic reduction of RhoNox-1 (green) in HMLER CD24^low cells treated with Sal or AM5 or AM9 (0.5 μM) for 48 h. e, Quantification of lysotracker-positive vesicles colocalizing with RhoNox-1 in fixed cells was carried out by means of visual inspection. At least 75 cells were counted per condition. Data represent three independent biological replicates (n=number of lysotracker vesicles). […] Spectra were recorded in CD3CN. […] For k and I, Samples prepared in CD3OD, spectra recorded at 298 K, 5 min following sample preparation (600 MHz). […]

In the case of CC[C@@H](C(=O)[C@@H](C)[C@@H](O)[C@H](C)[C@@H]1O[C@@H]([C@@H](CC)C(=O)O)CC[C@@H]1C)[C@H]1O[C@]2(C=C[C@@H](O)[C@]3(CC[C@@](C)([C@H]4CC[C@](O)(CC)[C@H](C)O4)O3)O2)[C@H](C)C[C@@H]1C [Sal, salinomycin, reference compound], the “interaction with iron(II)” value is reported as “interacted with iron(II)”.
